Measurements published in patent publication US11780893B2, “Kv1.3 blockers” (Zealand Pharma A/S, priority 2019, dated 2023).
Some results were stated once for a whole list of compounds, not compound by compound. Bridge positions count the residues as written; N and C are the ends. Square brackets hold non-standard residues; d marks the D form. Peptide text beside a SMILES is read from it. Nle = CCCC[C@H](N)C(=O)O

Chains of the proteins cited; added tags and fusions are not shown.
UniProt P22001, whole entry: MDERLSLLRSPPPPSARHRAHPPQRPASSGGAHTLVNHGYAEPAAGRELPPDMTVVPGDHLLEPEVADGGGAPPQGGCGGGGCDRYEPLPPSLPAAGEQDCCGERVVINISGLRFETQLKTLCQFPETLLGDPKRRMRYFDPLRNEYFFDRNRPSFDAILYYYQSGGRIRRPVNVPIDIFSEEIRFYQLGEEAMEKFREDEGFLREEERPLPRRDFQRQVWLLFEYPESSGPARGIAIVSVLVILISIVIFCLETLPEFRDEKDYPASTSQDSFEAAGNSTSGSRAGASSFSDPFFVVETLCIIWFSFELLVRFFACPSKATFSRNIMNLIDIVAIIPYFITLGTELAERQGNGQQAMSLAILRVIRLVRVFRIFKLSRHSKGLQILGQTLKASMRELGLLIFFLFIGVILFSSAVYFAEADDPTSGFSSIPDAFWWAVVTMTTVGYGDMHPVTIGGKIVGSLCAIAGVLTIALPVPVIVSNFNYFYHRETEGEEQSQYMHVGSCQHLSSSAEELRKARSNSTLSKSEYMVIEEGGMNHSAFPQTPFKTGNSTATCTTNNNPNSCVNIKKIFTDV
UniProt P16389, whole entry: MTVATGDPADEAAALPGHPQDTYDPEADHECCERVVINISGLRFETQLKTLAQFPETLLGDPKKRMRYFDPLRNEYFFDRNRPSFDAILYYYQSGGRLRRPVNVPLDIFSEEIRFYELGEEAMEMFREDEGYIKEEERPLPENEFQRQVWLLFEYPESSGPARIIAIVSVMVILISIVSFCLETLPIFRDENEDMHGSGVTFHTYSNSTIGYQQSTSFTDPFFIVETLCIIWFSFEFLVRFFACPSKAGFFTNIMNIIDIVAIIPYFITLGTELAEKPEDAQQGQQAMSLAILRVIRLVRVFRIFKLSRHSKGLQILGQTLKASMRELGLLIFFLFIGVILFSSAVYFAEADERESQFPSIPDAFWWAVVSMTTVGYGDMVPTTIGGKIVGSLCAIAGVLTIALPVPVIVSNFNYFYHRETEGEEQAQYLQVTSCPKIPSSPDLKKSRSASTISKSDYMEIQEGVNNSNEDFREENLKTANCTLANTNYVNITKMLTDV
UniProt Q09470, whole entry: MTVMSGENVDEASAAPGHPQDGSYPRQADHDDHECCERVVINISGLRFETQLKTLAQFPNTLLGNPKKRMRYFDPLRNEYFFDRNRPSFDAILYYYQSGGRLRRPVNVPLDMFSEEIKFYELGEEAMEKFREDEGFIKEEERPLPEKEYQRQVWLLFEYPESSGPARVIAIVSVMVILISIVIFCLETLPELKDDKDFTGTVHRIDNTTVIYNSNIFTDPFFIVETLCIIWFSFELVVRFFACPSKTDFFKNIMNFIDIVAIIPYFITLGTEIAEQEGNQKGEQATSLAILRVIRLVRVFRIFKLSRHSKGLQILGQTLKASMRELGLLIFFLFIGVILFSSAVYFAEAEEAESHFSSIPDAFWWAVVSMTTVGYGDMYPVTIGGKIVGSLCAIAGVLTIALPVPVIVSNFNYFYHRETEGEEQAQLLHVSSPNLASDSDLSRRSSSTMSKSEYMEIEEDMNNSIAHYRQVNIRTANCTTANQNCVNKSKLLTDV
UniProt P17658, whole entry: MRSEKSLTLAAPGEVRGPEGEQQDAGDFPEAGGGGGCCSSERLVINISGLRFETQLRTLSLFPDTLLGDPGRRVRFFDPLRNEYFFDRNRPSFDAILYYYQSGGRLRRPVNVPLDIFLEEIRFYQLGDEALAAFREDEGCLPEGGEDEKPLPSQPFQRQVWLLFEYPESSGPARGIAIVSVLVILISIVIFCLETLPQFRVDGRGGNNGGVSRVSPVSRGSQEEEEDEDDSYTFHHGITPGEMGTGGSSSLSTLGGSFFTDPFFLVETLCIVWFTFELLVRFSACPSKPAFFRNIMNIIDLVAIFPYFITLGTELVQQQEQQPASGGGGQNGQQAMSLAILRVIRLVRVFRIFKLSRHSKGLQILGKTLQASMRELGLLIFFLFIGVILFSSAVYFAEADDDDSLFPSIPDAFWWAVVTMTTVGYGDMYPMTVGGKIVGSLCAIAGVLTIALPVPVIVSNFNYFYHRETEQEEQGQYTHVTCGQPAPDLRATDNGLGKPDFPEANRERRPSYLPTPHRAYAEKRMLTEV

Tests used:
Format in all cases: cell-based
[1] = biological target: T1, human Kv1.3 voltage-gated K+ channel (Homo sapiens, UniProt P22001)
T1 construct: host or cells: CHO-DUKX

[2] = biological target: T2, Kv1.2 (Homo sapiens, UniProt P16389)
T2 construct: expressed in transfected cells; host or cells: Chinese Hamster Ovary (CHO)

[3] = biological target: T3, Kv1.1 (Homo sapiens, UniProt Q09470)
T3 construct: expressed in transfected cells; host or cells: Chinese Hamster Ovary (CHO)

[4] = biological target: T4, Kv1.6 (Homo sapiens, UniProt P17658)
T4 construct: expressed in transfected cells; host or cells: Chinese Hamster Ovary (CHO)

CCCC[C@@H]1NC(=O)[C@@H]2CSSC[C@H](NC(=O)[C@H](CCCNC(=N)N)NC(=O)[C@H](CCSC)NC(=O)[C@H](CC(=O)O)NC(=O)[C@H](CCSC)NC(=O)[C@@H](N)CC(N)=O)C(=O)N[C@@H](CO)C(=O)N[C@@H](C)C(=O)N[C@@H](CO)C(=O)N[C@@H](C(C)C)C(=O)N[C@@H](CCC(=O)O)C(=O)N[C@H]3CSSC[C@H](NC(=O)[C@H](CCCCN)NC(=O)[C@H](CCCCN)NC(=O)[C@H](CC(N)=O)NC1=O)C(=O)N[C@@H](CCCCN)C(=O)N[C@H](C(=O)N[C@@H](Cc1ccc(O)cc1)C(=O)N1CCC[C@H]1C(=O)N[C@@H](CCCNC(=N)N)C(N)=O)CSSC[C@H](NC(=O)[C@H](CCCCN)NC(=O)[C@H](CCC(N)=O)NC(=O)[C@H](CCCCN)NC3=O)C(=O)N[C@@H](CC(C)C)C(=O)N[C@@H](CCCCN)C(=O)N[C@@H](C)C(=O)N[C@@H]([C@@H](C)CC)C(=O)NCC(=O)N[C@@H](CO)C(=O)N[C@@H]([C@@H](C)CC)C(=O)N[C@@H](Cc1ccccc1)C(=O)NCC(=O)N[C@@H](CCCCN)C(=O)N2 [Compound 16] (H-NMDMRCSASVECKQKCLKAIGSIFGKC[Nle]NKKCKCYPR-NH2; disulfide 6-27, 12-32, 16-34)
IC50 [1]: ≤ 0.15 nM
Selectivity Kv1.2/Kv1.3 [2]: at least 50

CC[C@H](C)[C@@H]1NC(=O)[C@H](C)NC(=O)[C@H](CC(=O)O)NC(=O)[C@H](CC(C)C)NC(=O)[C@@H]2CSSC[C@@H](C(=O)N[C@@H](Cc3ccc(O)cc3)C(=O)N3CCC[C@H]3C(=O)N[C@@H](CCCNC(=N)N)C(N)=O)NC(=O)[C@H](CCCCN)NC(=O)[C@@H]3CSSC[C@H](NC(=O)[C@H](CCC(=O)O)NC(=O)[C@H](C(C)C)NC(=O)[C@H](CO)NC(=O)[C@H](C)NC(=O)[C@H](CO)NC(=O)[C@@H](NC(=O)[C@H](CCCNC(=N)N)NC(=O)[C@H](CCSC)NC(=O)[C@H](CC(=O)O)NC(=O)[C@H](CCSC)NC(=O)[C@@H](N)CC(N)=O)CSSC[C@H](NC(=O)[C@H](CCCCN)NC(=O)CNC(=O)[C@H](Cc4ccccc4)NC(=O)[C@H]([C@@H](C)CC)NC(=O)[C@H](CO)NC(=O)CNC1=O)C(=O)N[C@@H](CCSC)C(=O)N[C@@H](CC(N)=O)C(=O)N[C@@H](CCCCN)C(=O)N[C@@H](CCCCN)C(=O)N3)C(=O)N[C@@H](CCCCN)C(=O)N[C@@H](CCC(N)=O)C(=O)N[C@@H](CCCCN)C(=O)N2 [Compound 20] (H-NMDMRCSASVECKQKCLDAIGSIFGKCMNKKCKCYPR-NH2; disulfide 6-27, 12-32, 16-34)
IC50 [1]: ≤ 0.15 nM
Selectivity Kv1.2/Kv1.3 [2]: at least 50

CC[C@H](C)[C@@H]1NC(=O)[C@H](C)NC(=O)[C@H](CCCCN)NC(=O)[C@H](CC(C)C)NC(=O)[C@@H]2CSSC[C@@H](C(=O)N[C@@H](Cc3ccc(O)cc3)C(=O)N3CCC[C@H]3C(=O)N[C@@H](CCCNC(=N)N)C(N)=O)NC(=O)[C@H](CCCCN)NC(=O)[C@@H]3CSSC[C@H](NC(=O)[C@H](CCC(=O)O)NC(=O)[C@H](C(C)C)NC(=O)[C@H](CO)NC(=O)[C@H](C)NC(=O)[C@H](CO)NC(=O)[C@@H](NC(=O)[C@H](CCCNC(=N)N)NC(=O)[C@H](CCSC)NC(=O)[C@H](CC(=O)O)NC(=O)[C@H](CCSC)NC(=O)[C@@H](N)CC(N)=O)CSSC[C@H](NC(=O)[C@H](CCCCN)NC(=O)CNC(=O)[C@H](Cc4ccccc4)NC(=O)[C@H]([C@@H](C)CC)NC(=O)[C@H](CO)NC(=O)[C@H](CCC(=O)O)NC1=O)C(=O)N[C@@H](CCSC)C(=O)N[C@@H](CC(N)=O)C(=O)N[C@@H](CCCCN)C(=O)N[C@@H](CCCCN)C(=O)N3)C(=O)N[C@@H](CCCCN)C(=O)N[C@@H](CCC(N)=O)C(=O)N[C@@H](CCCCN)C(=O)N2 [Compound 22] (H-NMDMRCSASVECKQKCLKAIESIFGKCMNKKCKCYPR-NH2; disulfide 6-27, 12-32, 16-34)
IC50 [1]: ≤ 0.15 nM
Selectivity Kv1.2/Kv1.3 [2]: at least 50

CC[C@H](C)[C@@H]1NC(=O)[C@H](C)NC(=O)[C@H](CCCCN)NC(=O)[C@H](CC(C)C)NC(=O)[C@@H]2CSSC[C@@H](C(=O)N[C@@H](Cc3ccc(O)cc3)C(=O)N3CCC[C@H]3C(=O)N[C@@H](CCCNC(=N)N)C(N)=O)NC(=O)[C@H](CCCCN)NC(=O)[C@@H]3CSSC[C@H](NC(=O)[C@H](CCC(=O)O)NC(=O)[C@H](C(C)C)NC(=O)[C@H](CO)NC(=O)[C@H]([C@@H](C)CC)NC(=O)[C@H](CO)NC(=O)[C@@H](NC(=O)[C@H](CCCNC(=N)N)NC(=O)[C@H](CCSC)NC(=O)[C@H](CC(=O)O)NC(=O)[C@H](CCSC)NC(=O)[C@@H](N)CC(N)=O)CSSC[C@H](NC(=O)[C@H](CCCCN)NC(=O)CNC(=O)[C@H](Cc4ccccc4)NC(=O)[C@H]([C@@H](C)CC)NC(=O)[C@H](CO)NC(=O)CNC1=O)C(=O)N[C@@H](CCSC)C(=O)N[C@@H](CC(N)=O)C(=O)N[C@@H](CCCCN)C(=O)N[C@@H](CCCCN)C(=O)N3)C(=O)N[C@@H](CCCCN)C(=O)N[C@@H](CCC(N)=O)C(=O)N[C@@H](CCCCN)C(=O)N2 [Compound 26] (H-NMDMRCSISVECKQKCLKAIGSIFGKCMNKKCKCYPR-NH2; disulfide 6-27, 12-32, 16-34)
IC50 [1]: ≤ 0.15 nM
Selectivity Kv1.2/Kv1.3 [2]: at least 50

CC[C@H](C)[C@@H]1NC(=O)[C@H](C)NC(=O)[C@H](CCCCN)NC(=O)[C@H](CC(C)C)NC(=O)[C@@H]2CSSC[C@@H](C(=O)N[C@@H](Cc3ccc(O)cc3)C(=O)N3CCC[C@H]3C(=O)N[C@@H](CCCNC(=N)N)C(N)=O)NC(=O)[C@H](CCCCN)NC(=O)[C@@H]3CSSC[C@H](NC(=O)[C@H](CCC(=O)O)NC(=O)[C@H](C(C)C)NC(=O)[C@H](CO)NC(=O)[C@H](C)NC(=O)[C@H](CO)NC(=O)[C@@H](NC(=O)[C@H](CCCNC(=N)N)NC(=O)[C@H](CCSC)NC(=O)[C@H](CC(=O)O)NC(=O)[C@H](CCSC)NC(=O)[C@@H](N)CC(N)=O)CSSC[C@H](NC(=O)[C@H](CCCCN)NC(=O)CNC(=O)[C@H](Cc4ccccc4)NC(=O)[C@H]([C@@H](C)CC)NC(=O)[C@H](CO)NC(=O)CNC1=O)C(=O)N[C@@H](CCSC)C(=O)N[C@@H](CC(N)=O)C(=O)N[C@@H](CCCCN)C(=O)N[C@@H](CCCCN)C(=O)N3)C(=O)N[C@@H](CCCCN)C(=O)N[C@@H](CCC(=O)O)C(=O)N[C@@H](CCCCN)C(=O)N2 [Compound 31] (H-NMDMRCSASVECKEKCLKAIGSIFGKCMNKKCKCYPR-NH2; disulfide 6-27, 12-32, 16-34)
IC50 [1]: ≤ 0.15 nM
Selectivity Kv1.2/Kv1.3 [2]: at least 50

CC[C@H](C)[C@@H]1NC(=O)[C@H](C)NC(=O)[C@H](Cc2ccc(O)cc2)NC(=O)[C@H](CC(C)C)NC(=O)[C@@H]2CSSC[C@@H](C(=O)N[C@@H](Cc3ccc(O)cc3)C(=O)N3CCC[C@H]3C(=O)N[C@@H](CCCNC(=N)N)C(N)=O)NC(=O)[C@H](CCCCN)NC(=O)[C@@H]3CSSC[C@H](NC(=O)[C@H](CCC(=O)O)NC(=O)[C@H](C(C)C)NC(=O)[C@H](CO)NC(=O)[C@H](C)NC(=O)[C@H](CO)NC(=O)[C@@H](NC(=O)[C@H](CCCNC(=N)N)NC(=O)[C@H](CCSC)NC(=O)[C@H](CC(=O)O)NC(=O)[C@H](CCSC)NC(=O)[C@@H](N)CC(N)=O)CSSC[C@H](NC(=O)[C@H](CCCCN)NC(=O)CNC(=O)[C@H](Cc4ccccc4)NC(=O)[C@H]([C@@H](C)CC)NC(=O)[C@H](CO)NC(=O)CNC1=O)C(=O)N[C@@H](CCSC)C(=O)N[C@@H](CC(N)=O)C(=O)N[C@@H](CCCCN)C(=O)N[C@@H](CCCCN)C(=O)N3)C(=O)N[C@@H](CCCCN)C(=O)N[C@@H](CCC(N)=O)C(=O)N[C@@H](CCCCN)C(=O)N2 [Compound 53] (H-NMDMRCSASVECKQKCLYAIGSIFGKCMNKKCKCYPR-NH2; disulfide 6-27, 12-32, 16-34)
IC50 [1]: ≤ 0.15 nM
Selectivity Kv1.2/Kv1.3 [2]: at least 50

CCCC[C@H](NC(=O)[C@@H](N)CO)C(=O)N[C@@H](CC(=O)O)C(=O)N[C@@H](CCC(=O)O)C(=O)N[C@@H](CCCNC(=N)N)C(=O)N[C@H]1CSSC[C@@H]2NC(=O)[C@H](CCCCN)NC(=O)CNC(=O)[C@H](Cc3ccccc3)NC(=O)[C@H]([C@@H](C)CC)NC(=O)[C@H](CO)NC(=O)CNC(=O)[C@H]([C@@H](C)CC)NC(=O)[C@H](C)NC(=O)[C@H](CCCCN)NC(=O)[C@H](CC(C)C)NC(=O)[C@@H]3CSSC[C@@H](C(=O)N[C@@H](Cc4ccc(O)cc4)C(=O)N4CCC[C@H]4C(=O)N[C@@H](CCCNC(=N)N)C(N)=O)NC(=O)[C@H](CCCCN)NC(=O)[C@H](CSSC[C@H](NC(=O)[C@H](CCC(=O)O)NC(=O)[C@H](C(C)C)NC(=O)[C@H](CO)NC(=O)[C@H](C)NC(=O)[C@H](CO)NC1=O)C(=O)N[C@@H](CCCCN)C(=O)N[C@@H](CCC(N)=O)C(=O)N[C@@H](CCCCN)C(=O)N3)NC(=O)[C@H](CCCCN)NC(=O)[C@H](CCCCN)NC(=O)[C@H](CC(N)=O)NC(=O)[C@H](CCSC)NC2=O [Compound 76] (H-S[Nle]DERCSASVECKQKCLKAIGSIFGKCMNKKCKCYPR-NH2; disulfide 6-27, 12-32, 16-34)
IC50 [1]: ≤ 0.15 nM
Selectivity Kv1.2/Kv1.3 [2]: at least 50

CCCC[C@@H]1NC(=O)[C@@H]2CSSC[C@H](NC(=O)[C@@H](N)CCCNC(=N)N)C(=O)N[C@@H](CO)C(=O)N[C@@H](C)C(=O)N[C@@H](CO)C(=O)N[C@@H](C(C)C)C(=O)N[C@@H](CCC(=O)O)C(=O)N[C@H]3CSSC[C@H](NC(=O)[C@H](CCCCN)NC(=O)[C@H](CCCCN)NC(=O)[C@H](CC(N)=O)NC1=O)C(=O)N[C@@H](CCCCN)C(=O)N[C@H](C(=O)N[C@@H](Cc1ccc(O)cc1)C(=O)N1CCC[C@H]1C(=O)N[C@@H](CCCNC(=N)N)C(N)=O)CSSC[C@H](NC(=O)[C@H](CCCCN)NC(=O)[C@H](CCC(N)=O)NC(=O)[C@H](CCCCN)NC3=O)C(=O)N[C@@H](CC(C)C)C(=O)N[C@@H](CCCCN)C(=O)N[C@@H](C)C(=O)N[C@@H]([C@@H](C)CC)C(=O)NCC(=O)N[C@@H](CO)C(=O)N[C@@H]([C@@H](C)CC)C(=O)N[C@@H](Cc1ccccc1)C(=O)NCC(=O)N[C@@H](CCCCN)C(=O)N2 [Compound 106] (H-RCSASVECKQKCLKAIGSIFGKC[Nle]NKKCKCYPR-NH2; disulfide 2-23, 8-28, 12-30)
IC50 [1]: ≤ 0.15 nM
Selectivity Kv1.1/Kv1.3 [3]: at least 1000
Selectivity Kv1.6/Kv1.3 [4]: at least 400
